Some of the results follow.
Key:
Assay in all cases: glycan array binding signal (z-score within array); higher = stronger binding
Conditions in all cases: glycan notation: IUPAC condensed, linker removed
[1] = biological target: Gal(b1-3)GlcNAc(b1-6)[Gal(b1-3)]GalNAc
Summary of the method: (§1)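 Negative Z-scores can be read as non-binding. The Z-score is calculated within each array and then averaged across arrays of one protein sequence at different concentrations or buffers and across linkers. Arrays, 3228 in all, were curated from the Consortium for Functional Glycomics database and kept only where the protein sequence was available.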

Gal(b1-3)GlcNAc6S = biological target: Gal(b1-3)GlcNAc6S
Summary of the method: as §1

[2] = biological target: Gal(b1-3)[Fuc(a1-4)]GlcNAc
Summary of the method: as §1

[3] = biological target: Gal(b1-3)[Fuc(a1-4)]GlcNAc(b1-2)Man
Summary of the method: as §1

[4] = biological target: Gal(b1-3)[Fuc(a1-4)]GlcNAc(b1-2)Man(a1-3)[Gal(b1-3)[Fuc(a1-4)]GlcNAc(b1-2)Man(a1-6)]Man(b1-4)GlcNAc(b1-4)[Fuc(a1-6)]GlcNAc
Summary of the method: as §1

[5] = biological target: Gal(b1-3)[Fuc(a1-4)]GlcNAc(b1-3)Gal(b1-3)[Fuc(a1-4)]GlcNAc
Summary of the method: as §1

[6] = biological target: Gal(b1-3)[Fuc(a1-4)]GlcNAc(b1-3)Gal(b1-4)[Fuc(a1-3)]GlcNAc
Summary of the method: as §1

[7] = biological target: Gal(b1-3)[Fuc(a1-4)]GlcNAc(b1-6)GalNAc
Summary of the method: as §1

[8] = biological target: Gal(b1-3)[GlcNAc(b1-6)]GalNAc
Summary of the method: as §1

[9] = biological target: Gal(b1-3)[Neu5Ac(a2-6)]GalNAc
Summary of the method: as §1

[10] = biological target: Gal(b1-3)[Neu5Ac(a2-6)]GlcNAc(b1-4)Gal(b1-4)Glc
Summary of the method: as §1

[11] = biological target: Gal(b1-3)[Neu5Ac(b2-6)]GalNAc
Summary of the method: as §1

Gal(b1-4)Gal = biological target: Gal(b1-4)Gal
Summary of the method: as §1

[12] = biological target: Gal(b1-4)GalNAc(a1-3)[Fuc(a1-2)]Gal(b1-4)GlcNAc
Summary of the method: as §1

[13] = biological target: Gal(b1-4)GalNAc(b1-3)[Fuc(a1-2)]Gal(b1-4)GlcNAc
Summary of the method: as §1

Gal(b1-4)Glc = biological target: Gal(b1-4)Glc
Summary of the method: as §1

Gal(b1-4)Glc6S = biological target: Gal(b1-4)Glc6S
Summary of the method: as §1

Gal(b1-4)GlcNAc = biological target: Gal(b1-4)GlcNAc
Summary of the method: as §1

[14] = biological target: Gal(b1-4)GlcNAc(a1-6)Gal(b1-4)GlcNAc
Summary of the method: as §1

Gal(b1-4)GlcNAc(b1-2)Man = biological target: Gal(b1-4)GlcNAc(b1-2)Man
Summary of the method: as §1

[15] = biological target: Gal(b1-4)GlcNAc(b1-2)Man(a1-3)Man(b1-4)GlcNAc(b1-4)GlcNAc
Summary of the method: as §1

[16] = biological target: Gal(b1-4)GlcNAc(b1-2)Man(a1-3)[Gal(b1-4)GlcNAc(b1-2)Man(a1-6)]Man(b1-4)GlcNAc(b1-4)GlcNAc
Summary of the method: as §1

[17] = biological target: Gal(b1-4)GlcNAc(b1-2)Man(a1-3)[Gal(b1-4)GlcNAc(b1-2)Man(a1-6)]Man(b1-4)GlcNAc(b1-4)[Fuc(a1-6)]GlcNAc
Summary of the method: as §1

[18] = biological target: Gal(b1-4)GlcNAc(b1-2)Man(a1-3)[Gal(b1-4)GlcNAc(b1-2)Man(a1-6)][Gal(b1-4)GlcNAc(b1-4)]Man(b1-4)GlcNAc(b1-4)[Fuc(a1-6)]GlcNAc
Summary of the method: as §1

[19] = biological target: Gal(b1-4)GlcNAc(b1-2)Man(a1-3)[Gal(b1-4)GlcNAc(b1-2)Man(a1-6)][GlcNAc(b1-4)]Man(b1-4)GlcNAc(b1-4)[Fuc(a1-6)]GlcNAc
Summary of the method: as §1

[20] = biological target: Gal(b1-4)GlcNAc(b1-2)Man(a1-3)[GlcNAc(b1-2)Man(a1-6)]Man(b1-4)GlcNAc(b1-4)GlcNAc
Summary of the method: as §1

[21] = biological target: Gal(b1-4)GlcNAc(b1-2)Man(a1-3)[GlcNAc(b1-4)][Gal(b1-4)GlcNAc(b1-2)Man(a1-6)]Man(b1-4)GlcNAc(b1-4)GlcNAc
Summary of the method: as §1

[22] = biological target: Gal(b1-4)GlcNAc(b1-2)Man(a1-3)[Man(a1-6)]Man(b1-4)GlcNAc(b1-4)GlcNAc
Summary of the method: as §1

[23] = biological target: Gal(b1-4)GlcNAc(b1-2)Man(a1-6)Man(b1-4)GlcNAc(b1-4)GlcNAc
Summary of the method: as §1

[24] = biological target: Gal(b1-4)GlcNAc(b1-2)Man(a1-6)[GlcNAc(b1-2)Man(a1-3)]Man(b1-4)GlcNAc(b1-4)GlcNAc
Summary of the method: as §1

[25] = biological target: Gal(b1-4)GlcNAc(b1-2)Man(a1-6)[Man(a1-3)]Man(b1-4)GlcNAc(b1-4)GlcNAc
Summary of the method: as §1

[26] = biological target: Gal(b1-4)GlcNAc(b1-2)[Gal(b1-4)GlcNAc(b1-4)]Man(a1-3)[Gal(b1-4)GlcNAc(b1-2)Man(a1-6)]Man(b1-4)GlcNAc(b1-4)GlcNAc
Summary of the method: as §1

[27] = biological target: Gal(b1-4)GlcNAc(b1-2)[Gal(b1-4)GlcNAc(b1-4)]Man(a1-3)[Gal(b1-4)GlcNAc(b1-2)[Gal(b1-4)GlcNAc(b1-6)]Man(a1-6)]Man(b1-4)GlcNAc(b1-4)GlcNAc
Summary of the method: as §1

[28] = biological target: Gal(b1-4)GlcNAc(b1-2)[Gal(b1-4)GlcNAc(b1-4)]Man(a1-3)[GlcNAc(b1-4)][Gal(b1-4)GlcNAc(b1-2)Man(a1-6)]Man(b1-4)GlcNAc(b1-4)GlcNAc
Summary of the method: as §1

[29] = biological target: Gal(b1-4)GlcNAc(b1-2)[Gal(b1-4)GlcNAc(b1-4)]Man(a1-3)[GlcNAc(b1-4)][Gal(b1-4)GlcNAc(b1-2)[Gal(b1-4)GlcNAc(b1-6)]Man(a1-6)]Man(b1-4)GlcNAc(b1-4)GlcNAc
Summary of the method: as §1

[30] = biological target: Gal(b1-4)GlcNAc(b1-2)[Gal(b1-4)GlcNAc(b1-6)]Man(a1-6)[Gal(b1-4)GlcNAc(b1-2)Man(a1-3)]Man(b1-4)GlcNAc(b1-4)GlcNAc
Summary of the method: as §1

[31] = biological target: Gal(b1-4)GlcNAc(b1-2)[Gal(b1-4)GlcNAc(b1-6)]Man(a1-6)[Gal(b1-4)GlcNAc(b1-2)Man(a1-3)]Man(b1-4)GlcNAc(b1-4)[Fuc(a1-6)]GlcNAc
Summary of the method: as §1

[32] = biological target: Gal(b1-4)GlcNAc(b1-2)[Gal(b1-4)GlcNAc(b1-6)]Man(a1-6)[GlcNAc(b1-4)][Gal(b1-4)GlcNAc(b1-2)Man(a1-3)]Man(b1-4)GlcNAc(b1-4)GlcNAc
Summary of the method: as §1

[33] = biological target: Gal(b1-4)GlcNAc(b1-2)[Gal(b1-4)GlcNAc(b1-6)]Man(a1-6)[GlcNAc(b1-4)][Gal(b1-4)GlcNAc(b1-2)[Gal(b1-4)GlcNAc(b1-4)]Man(a1-3)]Man(b1-4)GlcNAc(b1-4)[Fuc(a1-6)]GlcNAc
Summary of the method: as §1

[34] = biological target: Gal(b1-4)GlcNAc(b1-3)Gal(b1-3)GalNAc
Summary of the method: as §1

[35] = biological target: Gal(b1-4)GlcNAc(b1-3)Gal(b1-3)GlcNAc
Summary of the method: as §1

[36] = biological target: Gal(b1-4)GlcNAc(b1-3)Gal(b1-4)Glc
Summary of the method: as §1

[37] = biological target: Gal(b1-4)GlcNAc(b1-3)Gal(b1-4)GlcNAc
Summary of the method: as §1

[38] = biological target: Gal(b1-4)GlcNAc(b1-3)Gal(b1-4)GlcNAc(b1-2)Man(a1-3)[Gal(b1-4)GlcNAc(b1-3)Gal(b1-4)GlcNAc(b1-2)Man(a1-6)]Man(b1-4)GlcNAc(b1-4)GlcNAc
Summary of the method: as §1

[39] = biological target: Gal(b1-4)GlcNAc(b1-3)Gal(b1-4)GlcNAc(b1-2)Man(a1-3)[Gal(b1-4)GlcNAc(b1-3)Gal(b1-4)GlcNAc(b1-2)Man(a1-6)]Man(b1-4)GlcNAc(b1-4)[Fuc(a1-6)]GlcNAc
Summary of the method: as §1

B1: Agalectin (Anopheles gambiae) (protein)
chain: MSNRPFTAKFPRYPENGDEVFIRGKLKDDAKSFSVNFCLPRPAQVAEHQTPPYIALHFKTIYDERDDTSRVVLNWKNLQWQQEEVLDNYWHVDRSQTFRVVFRLHEDCIKVFVNSVDHPPDYQFPVQLPLDQIESIELWDDVEHVEEISFRYDNGNSY
- glycan array binding signal (z-score) [1]: -1.37
- glycan array binding signal (z-score) (Gal(b1-3)GlcNAc6S): -1.14
- glycan array binding signal (z-score) [2]: -0.875
- glycan array binding signal (z-score) [3]: 1.44
- glycan array binding signal (z-score) [4]: 1.3
- glycan array binding signal (z-score) [5]: -0.675
- glycan array binding signal (z-score) [6]: -0.54
- glycan array binding signal (z-score) [7]: 1.05
- glycan array binding signal (z-score) [8]: 1.17
- glycan array binding signal (z-score) [9]: -0.11
- glycan array binding signal (z-score) [10]: -0.729
- glycan array binding signal (z-score) [11]: 0.408
- glycan array binding signal (z-score) (Gal(b1-4)Gal): -0.002
- glycan array binding signal (z-score) [12]: 0.003
- glycan array binding signal (z-score) [13]: -0.19
- glycan array binding signal (z-score) (Gal(b1-4)Glc): -0.265
- glycan array binding signal (z-score) (Gal(b1-4)Glc6S): -0.839
- glycan array binding signal (z-score) (Gal(b1-4)GlcNAc): -0.597
- glycan array binding signal (z-score) [14]: -0.597
- glycan array binding signal (z-score) (Gal(b1-4)GlcNAc(b1-2)Man): -0.365
- glycan array binding signal (z-score) [15]: 1.51
- glycan array binding signal (z-score) [16]: -0.853
- glycan array binding signal (z-score) [17]: -0.743
- glycan array binding signal (z-score) [18]: -0.173
- glycan array binding signal (z-score) [19]: -1.15
- glycan array binding signal (z-score) [20]: -1.21
- glycan array binding signal (z-score) [21]: -1.12
- glycan array binding signal (z-score) [22]: -0.542
- glycan array binding signal (z-score) [23]: -0.357
- glycan array binding signal (z-score) [24]: -0.688
- glycan array binding signal (z-score) [25]: -0.394
- glycan array binding signal (z-score) [26]: -0.892
- glycan array binding signal (z-score) [27]: -0.932
- glycan array binding signal (z-score) [28]: 0.333
- glycan array binding signal (z-score) [29]: -0.54
- glycan array binding signal (z-score) [30]: -0.747
- glycan array binding signal (z-score) [31]: 0.952
- glycan array binding signal (z-score) [32]: -0.792
- glycan array binding signal (z-score) [33]: -0.434
- glycan array binding signal (z-score) [34]: -0.424
- glycan array binding signal (z-score) [35]: 0.524
- glycan array binding signal (z-score) [36]: -0.006
- glycan array binding signal (z-score) [37]: -0.221
- glycan array binding signal (z-score) [38]: 0.999
- glycan array binding signal (z-score) [39]: 1.58
